Where a name gives a salt, the structure may show the parent alone. At least one compound was matched to its structure with a doubt left.
Target: T1, Jak2 (a.a. 828-1132) (Homo sapiens, UniProt O60674)
T1 construct: Jak2 (a.a. 828-1132); His tag (N); made in house; host or cells: insect cells (baculovirus)
Assay: In vitro JAK kinase assay (HTRF, phosphorylation of a biotinylated peptide), JAK2, reported as JAK2/JAK1 ratio
Assay type: biochemical
Conditions: Assay Conditions 1 mM ATP
Method: Compounds herein were tested for inhibitory activity of JAK targets according to the following in vitro assay described in Park et al., Analytical Biochemistry 1999, 269, 94-104. The catalytic domains of human JAK1 (a.a. 837-1142), Jak2 (a.a. 828-1132) and Jak3 (a.a. 781-1124) with an N-terminal His tag were expressed using baculovirus in insect cells and purified. The catalytic activity of JAK1, JAK2 or JAK3 was assayed by measuring the phosphorylation of a biotinylated peptide. The phosphorylated peptide was detected by homogenous time resolved fluorescence (HTRF). IC50s of compounds were measured for each kinase in the 40 microL reactions that contain the enzyme, ATP and 500 nM peptide in 50 mM Tris (pH 7.8) buffer with 100 mM NaCl, 5 mM DTT, and 0.1 mg/mL (0.01%) BSA. The ATP concentration in the reactions was 90 μM for Jak1, 30 μM for Jak2 and 3 μM for Jak3 for Km conditions. For the 1 mM IC50 measurements, ATP concentration in the reactions was 1 mM. Reactions were carried out at RT for 1 h and then stopped with 20 μL 45 mM EDTA, 300 nM SA-APC, 6 nM Eu-Py20 in assay buffer (Perkin Elmer, Boston, Mass.). Binding to the Europium labeled antibody took place for 40 min and HTRF signal was measured on a Fusion plate reader (Perkin Elmer, Boston, Mass.). […]

Sequences of proteins named here, by UniProt entry; tags and fusion partners are left off. Residues count along the entry.
UniProt O60674, 828-1132: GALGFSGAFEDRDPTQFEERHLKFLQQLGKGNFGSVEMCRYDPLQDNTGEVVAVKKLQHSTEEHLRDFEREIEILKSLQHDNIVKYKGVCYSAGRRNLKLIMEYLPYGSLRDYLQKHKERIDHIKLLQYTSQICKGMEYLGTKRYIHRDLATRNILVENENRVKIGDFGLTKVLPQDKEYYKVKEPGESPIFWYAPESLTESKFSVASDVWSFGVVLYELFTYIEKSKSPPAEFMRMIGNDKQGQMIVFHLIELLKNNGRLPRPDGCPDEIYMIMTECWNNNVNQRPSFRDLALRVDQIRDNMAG

| SMILES | JAK2/JAK1 IC50 ratio |
| --- | --- |
| N#CC[C@@H]([C@H]1CCN(c2ncc(CC(F)F)nc2C#N)C1)n1cc(-c2ncnc3[nH]ccc23)cn1 [Example 139, 3-((3S)-3-{(1S)-2-cyano-1-[4-(7H-pyrrolo[2,3-d]pyrimidin-4-yl)-1H-pyrazol-1-yl]ethyl}pyrrolidin-1-yl)-6-(2,2-difluoroethyl)pyrazine-2-carbonitrile trifluoroacetate] | 10.7 |
| N#CC[C@@H]([C@H]1CCN(c2nc(Cl)c(F)cc2NC=O)C1)n1cc(-c2ncnc3[nH]ccc23)cn1 [Example 92, N-(2-((S)-3-((S)-1-(4-(7H-pyrrolo[2,3-d]pyrimidin-4-yl)-1H-pyrazol-1-yl)-2-cyanoethyl)pyrrolidin-1-yl)-6-chloro-5-fluoropyridin-3-yl)formamide trifluoroacetate] | >12.5 |
